Source: the supplement of paper PMC6078165

System: BT20
Test: relative JC-1 red fluorescence (viability) vs pre-drug, coculture with fibroblast (fraction); higher = more viable cancer cells
Description: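 JC-1 labelled TNBC cells cocultured 1:1 (1,500 cells each) with CellTrace Violet stained primary or stromal fibroblasts in 384-well plates in FluoroBrite medium, treated with one of 42 anticancer drugs at 0.1, 1, 10 or 100 uM. JC-1 red fluorescence (mitochondrial integrity in cancer cells only) was read by plate reader every 8 h for 72 h. Values are normalised to each well's pre-drug value. The stock of one drug was tenfold lower, so its dose labels may be too high.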

C#Cc1cccc(Nc2ncnc3cc(OCCOC)c(OCCOC)cc23)c1 [Erlotinib]
relative JC-1 red fluorescence
Details	8 h	16 h	24 h	32 h	40 h	48 h	56 h	64 h	72 h
0.1 µM, coculture fibroblast: C12385	0.898	0.818	0.786	0.725	0.675	0.644	0.628	0.601	0.587
0.1 µM, coculture fibroblast: H6013	0.868	0.883	0.793	0.768	0.866	0.864	0.825	0.85	0.837
0.1 µM, coculture fibroblast: H6019	0.881	0.827	0.82	0.785	0.752	0.74	0.713	0.692	0.68
0.1 µM, coculture fibroblast: H6076	0.977	0.897	0.838	0.821	0.796	0.77	0.764	0.77	0.753
0.1 µM, coculture fibroblast: H6231	0.726	0.919	0.808	0.745	0.692	0.642	0.599	0.574	0.55
0.1 µM, coculture fibroblast: HADF	0.764	0.929	0.8292	0.805	0.776	0.731	0.722	0.684	0.64
0.1 µM, coculture fibroblast: HCFa	0.941	0.925	0.919	0.868	0.847	0.811	0.802	0.792	0.755
0.1 µM, coculture fibroblast: HCPF	0.872	0.922	0.843	0.8006	0.751	0.7061	0.667	0.658	0.629
0.1 µM, coculture fibroblast: HHSteC	0.92	0.833	0.81	0.742	0.689	0.655	0.629	0.609	0.578
0.1 µM, coculture fibroblast: HMF	0.832	0.851	0.754	0.6918	0.656	0.6118	0.5869	0.5553	0.533
0.1 µM, coculture fibroblast: HPFa	0.977	0.939	0.964	0.918	0.896	0.849	0.826	0.789	0.731
0.1 µM, coculture fibroblast: HUF	0.896	0.811	0.776	0.693	0.638	0.6006	0.5778	0.5574	0.547
0.1 µM, coculture fibroblast: Hs5	0.863	0.892	0.8403	0.7908	0.749	0.714	0.692	0.6551	0.633
0.1 µM, coculture fibroblast: Hs27A	0.846	0.823	0.888	0.912	0.861	0.828	0.796	0.761	0.706
0.1 µM, coculture fibroblast: Hs343T	0.935	0.844	0.747	0.691	0.653	0.621	0.583	0.575	0.558
0.1 µM, coculture fibroblast: WS1	0.8944	0.8073	0.776	0.718	0.659	0.63	0.606	0.575	0.556
1 µM, coculture fibroblast: C12385	0.889	0.836	0.811	0.753	0.706	0.676	0.653	0.647	0.637
1 µM, coculture fibroblast: H6013	0.941	0.9021	0.872	0.847	0.817	0.811	0.809	0.793	0.783
1 µM, coculture fibroblast: H6019	0.8619	0.7983	0.759	0.69	0.646	0.62	0.582	0.55	0.5273
1 µM, coculture fibroblast: H6076	0.846	0.914	0.845	0.806	0.776	0.761	0.76	0.761	0.746
1 µM, coculture fibroblast: H6231	0.809	0.905	0.834	0.765	0.721	0.673	0.648	0.616	0.591
1 µM, coculture fibroblast: HADF	0.961	0.942	0.91	0.891	0.905	0.902	0.896	0.907	0.891
1 µM, coculture fibroblast: HCFa	0.909	0.907	0.888	0.858	0.84	0.825	0.796	0.758	0.7106
1 µM, coculture fibroblast: HCPF	0.915	0.905	0.829	0.7778	0.721	0.674	0.644	0.627	0.598
1 µM, coculture fibroblast: HHSteC	0.897	0.887	0.889	0.8264	0.809	0.779	0.767	0.745	0.728
1 µM, coculture fibroblast: HMF	0.958	0.865	0.78	0.731	0.699	0.65	0.623	0.6	0.582
1 µM, coculture fibroblast: HPFa	0.922	0.886	0.879	0.809	0.797	0.766	0.733	0.709	0.663
1 µM, coculture fibroblast: HUF	0.88707	0.8073	0.794	0.722	0.691	0.66	0.643	0.629	0.619
1 µM, coculture fibroblast: Hs5	0.948	0.883	0.827	0.763	0.733	0.699	0.676	0.657	0.626
1 µM, coculture fibroblast: Hs27A	0.738	0.931	0.922	0.917	0.871	0.854	0.83	0.795	0.75
1 µM, coculture fibroblast: Hs343T	0.807	0.918	0.81	0.743	0.689	0.636	0.594	0.567	0.543
1 µM, coculture fibroblast: WS1	0.876	0.78966	0.747	0.683	0.628	0.604	0.582	0.56	0.552
10 µM, coculture fibroblast: C12385	0.907	0.835	0.777	0.715	0.667	0.6296	0.6077	0.587	0.5711
10 µM, coculture fibroblast: H6013	0.95	0.904	0.878	0.86	0.844	0.837	0.837	0.817	0.807
10 µM, coculture fibroblast: H6019	0.862	0.8	0.787	0.747	0.732	0.724	0.722	0.719	0.711
10 µM, coculture fibroblast: H6076	0.874	0.904	0.896	0.871	0.832	0.7951	0.777	0.781	0.769
10 µM, coculture fibroblast: H6231	0.72	0.9666	0.855	0.792	0.748	0.702	0.67	0.637	0.607
10 µM, coculture fibroblast: HADF	0.786	0.9625	0.907	0.916	0.903	0.876	0.872	0.863	0.834
10 µM, coculture fibroblast: HCFa	0.95	0.93	0.914	0.898	0.893	0.898	0.883	0.88	0.866
10 µM, coculture fibroblast: HCPF	0.758	0.9425	0.8542	0.815	0.742	0.702	0.656	0.627	0.587
10 µM, coculture fibroblast: HHSteC	0.926	0.892	0.888	0.837	0.815	0.803	0.774	0.761	0.751
10 µM, coculture fibroblast: HMF	0.86	0.931	0.8311	0.7713	0.726	0.687	0.6543	0.6242	0.59297
10 µM, coculture fibroblast: HPFa	0.953	0.88	0.873	0.808	0.781	0.75	0.724	0.688	0.646
10 µM, coculture fibroblast: HUF	0.915	0.864	0.829	0.757	0.703	0.661	0.635	0.615	0.593
10 µM, coculture fibroblast: Hs5	0.848	0.934	0.856	0.806	0.763	0.726	0.689	0.656	0.636
10 µM, coculture fibroblast: Hs27A	0.866	0.754	0.82	0.84	0.881	0.794	0.838	0.7732	0.784
10 µM, coculture fibroblast: Hs343T	0.853	0.931	0.811	0.759	0.713	0.666	0.615	0.601	0.565
10 µM, coculture fibroblast: WS1	0.8675	0.8145	0.835	0.823	0.8272	0.8351	0.854	0.865	0.888
100 µM, coculture fibroblast: C12385	0.899	0.847	0.823	0.776	0.738	0.727	0.708	0.699	0.692
100 µM, coculture fibroblast: H6013	0.965	0.789	0.903	0.712	0.839	0.735	0.903	0.764	0.874
100 µM, coculture fibroblast: H6019	0.912	0.862	0.84	0.781	0.749	0.735	0.706	0.689	0.675
100 µM, coculture fibroblast: H6076	0.754	0.9645	0.895	0.863	0.844	0.828	0.837	0.834	0.824
100 µM, coculture fibroblast: H6231	0.979	0.8895	0.818	0.764	0.731	0.703	0.689	0.675	0.652
100 µM, coculture fibroblast: HADF	0.905	0.872	0.975	0.92	0.838	0.919	0.823	0.845	0.819
100 µM, coculture fibroblast: HCFa	0.855	0.863	0.893	0.929	0.882	0.843	0.831	0.909	0.829
100 µM, coculture fibroblast: HCPF	0.912	0.917	0.846	0.805	0.768	0.731	0.699	0.686	0.666
100 µM, coculture fibroblast: HHSteC	0.9926	0.862	0.858	0.857	0.837	0.905	0.8876	0.886	0.819
100 µM, coculture fibroblast: HMF	0.808	0.925	0.8114	0.749	0.7146	0.6599	0.601	0.578	0.546
100 µM, coculture fibroblast: HPFa	0.9464	0.907	0.893	0.848	0.844	0.825	0.818	0.81	0.779
100 µM, coculture fibroblast: HUF	0.808	0.79	0.813	0.741	0.833	0.791	0.767	0.755	0.752
100 µM, coculture fibroblast: Hs5	0.803	0.929	0.858	0.81	0.779	0.741	0.708	0.688	0.672
100 µM, coculture fibroblast: Hs27A	0.815	0.84	0.823	0.752	0.835	0.8	0.861	0.832	0.7845
100 µM, coculture fibroblast: Hs343T	0.764	0.922	0.821	0.782	0.746	0.688	0.646	0.618	0.584
100 µM, coculture fibroblast: WS1	0.88	0.814	0.794	0.751	0.699	0.689	0.676	0.657	0.653

Values are relative to the signal before dosing, not to a vehicle control; the signal also falls without drug.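 Labels refer to human fibroblasts, largely primary: uterine (C12385, HUF), lung (H6013), bone (Hs27A), adrenal (HADF), skin (WS1), plus mammary HMF and breast cancer-associated Hs343T. Cancer lines are basal-like or mesenchymal-like triple-negative breast cancer. The paper counts as hits responses shifting over 3x the replicate standard deviation. The tissue of the other fibroblasts is not given here.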
